PubChem BioAssay AID901 (National Center for Advancing Translational Sciences (NCATS), 2007)
Some of the results follow. The main result of the screen is listed elsewhere. These columns were measured beside it and carry no call. Compounds called inactive in the main read-out are mostly missing here. Potencies come from curve fits of mixed quality, noted in brackets.

Experiment: qHTS Assay for Identifying the Cell-Membrane Permeable IMPase Inhibitors
Conditions: CHO-M1 cells, IP1 accumulation, HTRF TR-FRET ratio; measured here: donor channel 620 nm AC50
For `COc1cccc(C2=NN(C(=O)c3ccccc3)C(O)(C(F)(F)F)C2)c1` (stereo not drawn), the AC50 was 20 µM [falling, single point].
In the case of `COc1ccc(OCc2nc(C#N)c(NCc3ccccc3Cl)o2)cc1`, the AC50 is reported as 0.0141 µM [rising, full curve, poor fit].
For `CCOC(=O)C(NCc1ccc2c(c1)OCO2)(NC(=O)CC)C(F)(F)F` (stereo not drawn), the AC50 was 6.31 µM [rising, partial curve, poor fit].
For `O=C(CCS(=O)(=O)c1ccc(Br)s1)NCc1ccc2c(c1)OCO2`, the AC50 was 0.01 µM [rising, full curve, poor fit].
For `Cn1cnnc1Sc1nc2ccccc2nc1NS(=O)(=O)c1ccccc1`, the AC50 was 0.00501 µM [rising, full curve, poor fit].
With `CC(=O)[C@@H]1[C@H]2[C@H](C(=O)[C@H]3OC[C@@H]2O3)[C@H]2C=Cc3ccccc3N21` the AC50 was 25.1 µM [falling, partial curve, poor fit].
With `COC(=O)Cn1c(=NC(=O)C(C)C)sc2c(C)cc(C)cc21` the AC50 was 12.6 µM [falling, partial curve].
With `CC(=O)Oc1ccc2oc(/C=C/N(C)C)c([N+](=O)[O-])c2c1` the AC50 was 15.8 µM [falling, single point].
In the case of `CC(C)n1cnc2cc(NCc3ccccn3)ccc21`, the AC50 is reported as 6.31 µM [falling, single point].
With `O=C(CCSc1nnc2ccc3ccccc3n12)Nc1ccc(F)cc1` the AC50 was 31.6 µM [rising, single point].
With `CCOC(=O)c1sc(NC(=O)Cn2nnc3sc4c(c3c2=O)CCCC4)nc1C` the AC50 was 0.0316 µM [rising, full curve, poor fit].
With `CCCCC(CC)C(=O)Nc1ccc(Cl)cn1` (stereo not drawn) the AC50 was 0.01 µM [falling, full curve].
With `Cc1cc(/C=N/n2c(COc3ccccc3C)nc3ccccc3c2=O)c(O)c([N+](=O)[O-])c1` the AC50 was 0.01 µM [rising, full curve, poor fit].
In the case of `COC(=O)c1ccc2c(c1)NC(=O)C(N1CCCCC1)S2` (stereo not drawn), the AC50 is reported as 0.00501 µM [rising, full curve, poor fit].
In the case of `COc1ccc(/C=C/C(=O)OCc2cc(=O)n3c(n2)sc2ccccc23)cc1`, the AC50 is reported as 5.01 µM [rising, single point].
For `Cn1nc(CC(=O)Nc2ccc3c(c2)CCC3)c2ccccc2c1=O`, the AC50 was 0.0631 µM [rising, partial curve, poor fit].
For `CCCC(=O)Nc1nc2ccc(NC(=O)c3cccnc3)cc2s1`, the AC50 was 0.501 µM [rising, full curve, poor fit].
With `CCOc1ccccc1/C=N/Nc1ccccc1[N+](=O)[O-]` the AC50 was 3.98 µM [rising, single point].
With `O=C(c1ccco1)n1nc(-c2ccccc2)nc1NCc1ccccc1Cl` the AC50 was 31.6 µM [rising, single point].
In the case of `O=C(NCc1ccc(F)cc1)c1cc(S(=O)(=O)N2CCOCC2)ccc1F`, the AC50 is reported as 3.16 µM [falling, partial curve, poor fit].
For `O=C(NCC(=O)N(Cc1cccs1)C(C(=O)NC1CCCCC1)c1ccncc1)c1ccco1` (stereo not drawn), the AC50 was 0.158 µM [rising, single point].
With `O=C(Nc1ccc(NC(=O)c2ccco2)nc1)c1ccccn1` the AC50 was 0.2 µM [rising, partial curve, poor fit].
With `O=C(COC(=O)c1cccnc1SCC(=O)NCc1ccccc1)NCc1ccccc1` the AC50 was 31.6 µM [rising, partial curve].
In the case of `COc1cccc(-n2c(=O)c3cc(OC)c(OC)cc3n(CC(=O)Nc3ccccc3)c2=O)c1`, the AC50 is reported as 0.0562 µM [falling, full curve, poor fit].
For `COc1cc2c(cc1NC(=O)COc1ccc(Br)cc1C)oc1ccccc12`, the AC50 was 0.00708 µM [rising, full curve].
With `CONC(=O)C1CCN(C(=O)OCc2ccccc2)CC1` the AC50 was 0.562 µM [falling, full curve, poor fit].
In the case of `CCOc1ccc(NC(=O)CSc2ncnc3c2sc2ccccc23)cc1`, the AC50 is reported as 15.8 µM [rising, partial curve].
For `COc1cccc2cc(C(=O)C3=C(O)C(=O)N(Cc4ccco4)C3c3cccnc3)oc12` (stereo not drawn), the AC50 was 12.6 µM [rising, partial curve].
With `CCOC(=O)c1c(C)[nH]c(C)c1C(=O)COC(=O)c1cccc(S(=O)(=O)N(CC)CC)c1` the AC50 was 0.01 µM [rising, full curve, poor fit].
With `NNc1nc(NCc2ccccc2)nc(N2CCOCC2)n1` the AC50 was 31.6 µM [falling, single point].
With `COc1ccc(OC)c2sc(NC(=O)c3ccc(S(=O)(=O)N4CCOCC4)cc3)nc12` the AC50 was 5.62 µM [falling, full curve, poor fit].
In the case of `CCOC(=O)c1sc(N2C(=O)c3oc4ccccc4c(=O)c3C2c2ccc(C(C)(C)C)cc2)nc1C` (stereo not drawn), the AC50 is reported as 35.5 µM [falling, single point].
With `COCC(=O)N(C)c1nnc(-c2ccc([N+](=O)[O-])cc2)s1` the AC50 was 31.6 µM [falling, single point].
In the case of `COc1cc(-c2nnc(COc3ccc4cc(Br)ccc4c3)o2)cc(OC)c1OC`, the AC50 is reported as 15.8 µM [rising, single point].
For `O=C1c2cccc3c([N+](=O)[O-])ccc(c23)C(=O)N1c1ccccn1`, the AC50 was 12.6 µM [falling, partial curve].
For `CS(=O)(=O)N1CCN(C(=O)c2ccc(F)cc2)CC1`, the AC50 was 0.158 µM [falling, full curve, poor fit].
In the case of `COc1ccc(/C=C2\CCn3c2nc2cc(C(=O)O)ccc2c3=O)cc1O`, the AC50 is reported as 20 µM [falling, partial curve, poor fit].
With `CCOC(=O)c1nn(-c2ccccc2C)c2nc(-c3ccc(C)cc3)c(C#N)c(=O)n12` the AC50 was 31.6 µM [rising, single point].
In the case of `CCOC(=O)C(NC(=O)c1ccccc1)(Nc1nnc(C)s1)C(F)(F)F` (stereo not drawn), the AC50 is reported as 35.5 µM [falling, single point].
In the case of `CC(=O)O[C@]1(C(C)=O)CC[C@@H]2[C@@H]3C=C(Cl)C4=CC(=O)[C@H]5C[C@@H]5[C@]4(C)[C@H]3CC[C@]21C`, the AC50 is reported as 2.51 µM [falling, partial curve].
In the case of `Cc1ccc2oc(=O)c3cnn(CC(=O)N4CCCc5ccccc54)c3c2c1`, the AC50 is reported as 35.5 µM [rising, single point].
For `CN(C(=O)c1ccccc1)c1ccc(OCC(=O)NC2CCS(=O)(=O)C2)cc1` (stereo not drawn), the AC50 was 0.398 µM [rising, full curve, poor fit].
For `Cc1ccc(-c2cc(C(=O)NCc3cn(C)nc3C)c3cc(Br)ccc3n2)cc1`, the AC50 was 14.1 µM [rising, partial curve, poor fit].
For `Cc1cc(NC(=O)CC(C)(C)C)nc2c1c(=O)oc1ccccc12`, the AC50 was 0.00501 µM [falling, full curve, poor fit].
For `O=C(Nc1ccc(Cl)cc1C(=O)N1CCOCC1)c1ccco1`, the AC50 was 11.2 µM [falling, partial curve, poor fit].
In the case of `Cc1cc(C)c(C)c(S(=O)(=O)N2CCC(C(=O)OCC(=O)N3c4ccccc4NC(=O)C3(C)C)CC2)c1C`, the AC50 is reported as 10 µM [falling, partial curve].
For `O=C(/C=C/c1ccc(Cl)cc1Cl)NCc1ccncc1`, the AC50 was 10 µM [falling, partial curve, poor fit].
With `O=C(CSc1nc2ccccc2o1)NCCOc1ccccc1` the AC50 was 0.0251 µM [rising, full curve, poor fit].
In the case of `CSc1nnc2c(n1)c(C)nn2-c1cccc(C)c1`, the AC50 is reported as 0.126 µM [rising, single point].
In the case of `CCCN(CCC)C(=O)Cn1c(=O)n(CCCCCC(=O)Nc2ccccc2)c(=O)c2sccc21`, the AC50 is reported as 17.8 µM [rising, partial curve].
For `O=C1c2ccccc2C(=O)N1Cc1nn2c(-c3ccc(Cl)cc3)nnc2s1`, the AC50 was 31.6 µM [rising, single point].
For `CCSc1nc(N)c(C#N)c(-c2ccco2)c1C#N`, the AC50 was 1 µM [falling, full curve].
For `COc1ccc(CC(=O)Nc2nnc(C)s2)cc1`, the AC50 was 1 µM [falling, full curve, poor fit].
In the case of `COc1nc(N)c(S(=O)(=O)c2ccc(C)cc2)cc1C#N`, the AC50 is reported as 3.16 µM [rising, single point].
With `CCC(C)(C)NC(=O)C(c1cccnc1)N(CCOC)C(=O)Cn1nnc2ccccc21` (stereo not drawn) the AC50 was 10 µM [falling, partial curve].
For `O=C(c1ccco1)N1CCN(C(c2ccccc2F)c2nnnn2Cc2cccs2)CC1` (stereo not drawn), the AC50 was 15.8 µM [rising, single point].
In the case of `CCOc1ccc(CCNC(=O)c2cc3cc4cc(OC)ccc4nc3s2)cc1OCC`, the AC50 is reported as 3.98 µM [rising, single point].
In the case of `CC(C)(C)c1ccc(S(=O)(=O)NCCc2ccncc2)cc1`, the AC50 is reported as 10 µM [falling, single point].
With `CCOC(=O)c1c(Nc2ccc(OC)cc2)nnc(-c2ccccc2)c1-c1ccccc1` the AC50 was 1.12 µM [falling, full curve, poor fit].
For `CCOc1ccc(NC(=O)COc2ccc(S(=O)(=O)NC3CCCCC3)cc2)cc1`, the AC50 was 0.1 µM [falling, full curve, poor fit].
With `CC(C)c1ccc(OCC(=O)N(Cc2cccs2)C2CCS(=O)(=O)C2)cc1` (stereo not drawn) the AC50 was 0.00891 µM [rising, full curve, poor fit].
For `O=C1CCCC2=C1C(c1ccc3c(c1)OCO3)c1c([nH]n(-c3ccccc3)c1=O)N2` (stereo not drawn), the AC50 was 12.6 µM [falling, partial curve].
In the case of `CCc1nn2c(=O)c(S(=O)(=O)Nc3ccc(Cl)cc3)c(C)nc2s1`, the AC50 is reported as 1.58 µM [falling, partial curve, poor fit].
